Experimental findings from PubChem BioAssay AID2685 (National Center for Advancing Translational Sciences (NCATS), 2010) are described below.

This assay in a line: qHTS Assay for Lipid Storage Modulators in Drosophila S3 Cells.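 On cell number change: cells counted by Cell Tracker Red CMTPX staining in the red channel.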 To be noted: BODIPY lipid droplet fluorescence, 18-24 h; for cell number change: measured here: cell count max response, cells fed with added oleic acid. In a few lines: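 Drosophila S3 cells got compounds at several concentrations plus oleic acid (400 uM solution). Laser-scanning cytometry with 488 nm excitation read lipid droplets at 500-530 nm and cells at 575-640 nm. Percent activity was relative to 20 uM Triacsin C.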

Setting [1] is: measured here: lipid fluorescence (Fed channel) AC50, cells fed with added oleic acid.
Setting [2] is: measured here: cell number channel AC50, cells fed with added oleic acid.

The other results are listed elsewhere or left out. The main result of the screen is listed elsewhere. These columns were measured beside it and carry no call. The list favours compounds with an active or inconclusive main result. Potencies come from curve fits of mixed quality, noted in brackets.

As for `COc1ccccc1NC(=O)CSc1nc2ccccc2n1C(C)=O`, the cell number change was -6.45%.

Regarding `N#C/C(=C\c1ccc(F)c(F)c1)C(=O)NC1CCCCC1`, the cell number change was -9.64%. For the same compound, the AC50 under setting [1] is 7.31 µM [falling, partial curve].

For the compound `CCn1c(CNc2ccccc2Cl)nnc1SCCN1CCCCC1`, the cell number change is -8.23%. Moreover, the AC50 under setting [1] is 29.1 µM [rising, single point].

On to `COC(=O)C1=C(C)N(Cc2ccccc2)C(=NCCN2CCOCC2)N[C@H]1CCc1ccccc1`, for which the cell number change is -14.3%. The AC50 under setting [1] is 0.92 µM [falling, single point].

Take `COc1cc(C2N(c3ccccc3)CCN2c2ccccc2)cc(OC)c1OC`: the cell number change is 7.81%.

In the case of `CN1CCCN(S(=O)(=O)c2cccc(Cl)c2Cl)CC1`, the cell number change is -32.4%. Besides, the concentration at half-maximal activity (AC50) under setting [2] was 0.291 µM [falling, full curve, poor fit].

In the case of `COc1ccc2c(COC(=O)CC3Sc4ccccc4NC3=O)cc(=O)oc2c1` (configuration not stated), the cell number change came to 16.2%.

Consider `COc1ccc(NC(=O)CN(C)C(=O)c2cc(-c3ccc(C)o3)nc3ccccc23)cc1`, for which the AC50 under setting [1] is 3.26 µM [rising, single point].

For `CN(C(=O)CSc1ccccc1C(=O)O)C1CCCCC1`, the cell number change stood at 46.8%. The AC50 under setting [2] was 29.1 µM [rising, single point].

As to `CC(C)(C)/C(COc1ccccc1[N+](=O)[O-])=N/O`, the cell number change came to 4.4%. For the same compound, the half-maximal activity concentration (AC50) under setting [1] is 0.112 µM [falling, full curve, poor fit].

For the compound `COc1ccc(CN2CCN(C3CCSCC3)CC2CCO)c(C)c1C` (configuration not stated), the cell number change came out at 7.2%. Moreover, the AC50 under setting [1] is 11.6 µM [rising, single point].

For the compound `COc1ccc(/C(O)=C2/C(=O)C(=O)N(CCCN3CCOCC3)C2c2ccc(N(C)C)cc2)cc1` (configuration not stated), the cell number change is 1.09%. Further, the AC50 under setting [1] was 29.1 µM [rising, single point].

As for `CC(C)c1nnc(NC(=O)c2ccc(S(=O)(=O)N3CCOCC3)cc2)s1`, the concentration at half-maximal activity (AC50) runs as follows: under setting [2], 3.26 µM [rising, single point]; under setting [1], 4.61 µM [rising, single point].

With `Cc1ccc2c(NC(=O)c3ccco3)cccc2n1`, the cell number change is -19.1%.

Consider `Cc1cccc(NS(=O)(=O)c2cc3c(cc2C)n(C)c(=O)c(=O)n3C)c1`, for which the cell number change was -15.6%. In addition, the AC50 under setting [1] was 10.3 µM [falling, partial curve].

In the case of `COc1ccc(CNC(=O)c2ccc(Cl)c(S(=O)(=O)N3CCOCC3)c2)cc1OC`, the AC50 under setting [1] is 16.4 µM [falling, single point].

For `N#Cc1ccccc1OCC(=O)N1N=C(c2cccs2)CC1c1ccco1` (configuration not stated), the cell number change is -4.29%. Also, the AC50 under setting [1] is 0.461 µM [rising, full curve, poor fit].

On to `CCOC(=O)C1=C(N)Oc2cc(O)ccc2C1c1ccc(F)cc1F` (configuration not stated), for which the cell number change is -51.6%. The AC50 under setting [2] is 20.6 µM [falling, single point].

`COc1ccc(S(=O)(=O)N2CCCOC2CNC(=O)C(=O)NCCc2ccco2)cc1OC` (configuration not stated): the cell number change is 17%. Under setting [1], the AC50 is 29.1 µM [rising, single point].
